Record: PubChem BioAssay AID1259291 (Sanger Institute, 2017)

- Purpose: 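Genes needed for HT29 colorectal cancer cell survival or for sensitivity to drugs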 (primary screen)
- System: HT29 human colorectal cancer cells
- Reagents: siRNA pool against human genes
- Conditions: anchor drugs added a day after transfection: BYL719 at 1 µM, cetuximab at 5 µg/ml or trametinib at 10 nM, or DMSO vehicle alone
- Measured: 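Replicate-averaged viability relative to non-targeting pool, robust z-score based on control wells, plus per-drug synergy score for 1 µM BYL719, 5 µg/ml cetuximab and 10 nM trametinib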
- Direction: robust z-score, knock-down alone and viability, knock-down alone: higher = more viable cells; synergy score with BYL719 and synergy score with cetuximab and synergy score with trametinib: higher = stronger synergistic killing with drug
- Rule for the call: 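a knock-down alone scoring under -3 on robust z-score is called essential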
- Meaning of the calls: active = essential (knock-down alone); inactive = no change alone
Shown is a random part of 794 reagents. In the full data, 15 (1.9%) were called active. 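Calls rest on knock-down alone; drug synergy scores do not affect them; drugs added a day post-transfection, DMSO vehicle as comparison.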 A number with no mark means an inactive call. No viability above 1 is reported: the scale is capped. Not given: the amount of reagent, the time to read-out.

target | robust z-score, knock-down alone | viability, knock-down alone (fraction of control) | synergy score with BYL719 | synergy score with cetuximab | synergy score with trametinib
MAP3K7 (GeneID 6885) | -0.679 | 0.924 | -0.148 | -0.0764 | 0.021
STK4 (GeneID 6789) | -0.9 | 0.91 | -0.0637 | -0.0631 | -0.0337
TSSK4 (GeneID 283629) | 0.552 | 1 | -0.0652 | 0.06 | -0.0254
TSSK6 (GeneID 83983) | 0.552 | 1 | -0.0524 | 0.0574 | 0.0773
TPK1 (GeneID 27010) | -4 (active) | 0.718 | -0.136 | -0.14 | -0.0542
CDK14 (GeneID 5218) | -1.61 | 0.866 | -0.00421 | -0.000269 | -0.103
HIPK2 (GeneID 28996) | 0.552 | 1 | -0.101 | 0 | -0.0919
PRKAA2 (GeneID 5563) | 0.552 | 1 | -0.0415 | 0.0238 | 0.0821
CDK12 (GeneID 51755) | -0.229 | 0.952 | -0.0266 | -0.0485 | -0.00804
CPNE3 (GeneID 8895) | 0.46 | 0.994 | -0.162 | -0.0058 | 0.0157
NME2 (GeneID 4831) | 0.552 | 1 | -0.00189 | 0.0125 | 0.0335
PIK3R1 (GeneID 5295) | 0.552 | 1 | -0.00249 | 0.00442 | -0.0265
MAP3K2 (GeneID 10746) | 0.552 | 1 | -0.0703 | 0.0494 | 0.0365
AURKC (GeneID 6795) | 0.552 | 1 | 0.0244 | 0.075 | 0.0285
NUAK1 (GeneID 9891) | 0.552 | 1 | 0.209 | 0.172 | 0.00838
SRGAP3 (GeneID 9901) | 0.552 | 1 | 0.0218 | 0.0433 | -0.0748
GK (GeneID 2710) | 0.552 | 1 | -0.0872 | 0 | -0.0766
CDC73 (GeneID 79577) | -1.36 | 0.881 | -0.0619 | 0.0241 | 0.0237
PLK4 (GeneID 10733) | -0.281 | 0.948 | 0.0701 | 0.153 | 0.101
STK32A (GeneID 202374) | 0.552 | 1 | -0.0759 | 0 | -0.0845
EXOSC10 (GeneID 5394) | 0.552 | 1 | -0.103 | 0 | -0.148
CLK3 (GeneID 1198) | 0.552 | 1 | -0.0281 | 0 | 0.0221
GRK2 (GeneID 156) | 0.552 | 1 | 0.078 | 0 | 0.112
EFNA5 (GeneID 1946) | -0.516 | 0.934 | -0.1 | -0.0663 | -0.0714
EPHA6 (GeneID 285220) | 0.552 | 1 | 0.227 | 0 | 0.202
TEX14 (GeneID 56155) | 0.552 | 1 | 0.0624 | 0 | -0.0337
GRK1 (GeneID 6011) | 0.552 | 1 | 0.0102 | 0 | 0.0304
TYRO3 (GeneID 7301) | 0.552 | 1 | 0.064 | 0 | -0.0111
CHKA (GeneID 1119) | 0.552 | 1 | 0.0662 | 0.116 | 0.0897
WNK1 (GeneID 65125) | 0.552 | 1 | -0.158 | 0 | 0.0546
ACVR2B (GeneID 93) | 0.552 | 1 | -0.0796 | 0.0742 | 0.0193
WT1 (GeneID 7490) | 0.552 | 1 | 0.0188 | 0.123 | 0.07
RYK (GeneID 6259) | 0.552 | 1 | -0.0865 | 0 | 0.0291
RAD21 (GeneID 5885) | -0.258 | 0.95 | 0.0541 | 0.127 | -0.0906
CALM2 (GeneID 805) | 0.552 | 1 | 0.0675 | 0.0193 | 0.133
XYLB (GeneID 9942) | 0.552 | 1 | -0.025 | 0 | 0.0208
VRK2 (GeneID 7444) | 0.552 | 1 | -0.0373 | 0 | 0.0361
SIK2 (GeneID 23235) | 0.552 | 1 | -0.0708 | 0.0857 | 0.0646
ATR (GeneID 545) | 0.552 | 1 | 0.0512 | 0.068 | 0.0207
UCK2 (GeneID 7371) | 0.355 | 0.988 | 0.0743 | 0.046 | 0.00212
TRIO (GeneID 7204) | -0.426 | 0.939 | -0.16 | -0.0278 | -0.0355
FLT3 (GeneID 2322) | -0.287 | 0.948 | 0.117 | -0.0355 | -0.0365
PKIA (GeneID 5569) | -0.383 | 0.942 | -0.0818 | -0.0581 | -0.0773
IRAK1 (GeneID 3654) | 0.552 | 1 | 0.067 | 0.0132 | 0.245
MAPK9 (GeneID 5601) | 0.552 | 1 | -0.0837 | 0.0263 | -0.0054
TAOK3 (GeneID 51347) | 0.552 | 1 | 0.129 | 0.113 | 0.0411
PKLR (GeneID 5313) | -1.01 | 0.903 | -0.209 | -0.097 | 0.0119
LATS1 (GeneID 9113) | 0.552 | 1 | 0.0049 | 0 | 0.0391
STK36 (GeneID 27148) | 0.552 | 1 | -0.0857 | 0 | 0.0974
RIPK2 (GeneID 8767) | 0.552 | 1 | -0.0917 | 0 | 0.0204
PRKACG (GeneID 5568) | 0.552 | 1 | -0.0307 | 0.072 | 0.0342
SRC (GeneID 6714) | -0.562 | 0.931 | -0.0581 | -0.0301 | 0.00534
CSNK2A1 (GeneID 1457) | 0.552 | 1 | 0.0268 | 0.0298 | -0.0108
CERT1 (GeneID 10087) | 0.552 | 1 | -0.0358 | 0 | 0.112
RIOK2 (GeneID 55781) | -0.837 | 0.914 | -0.111 | -0.0264 | -0.169
PIK3R5 (GeneID 23533) | -1.37 | 0.881 | -0.207 | 0.00644 | 0.0106
NTRK1 (GeneID 4914) | -1.98 | 0.843 | -0.114 | -0.0714 | 0.0859
RPS6KA5 (GeneID 9252) | 0.356 | 0.988 | 0.166 | 0.171 | 0.0885
MUSK (GeneID 4593) | -0.97 | 0.906 | -0.132 | -0.0261 | 0.0661
NME3 (GeneID 4832) | 0.0202 | 0.967 | -0.111 | -0.0331 | -0.0633
CSNK2B (GeneID 1460) | 0.552 | 1 | -0.00843 | 0.0726 | 0.207
TLK1 (GeneID 9874) | 0.231 | 0.98 | 0.207 | 0.0711 | 0.178
ITPKB (GeneID 3707) | 0.552 | 1 | 0.0783 | 0.0809 | 0.0149

Reagents above with an active call, once more:
target | robust z-score, knock-down alone | viability, knock-down alone (fraction of control) | synergy score with BYL719 | synergy score with cetuximab | synergy score with trametinib
TPK1 (GeneID 27010) | -4 (active) | 0.718 | -0.136 | -0.14 | -0.0542
